Source: article doi:10.1101/517573
Results are given in words; binding and its absence hold for the method and conditions named. In cells and extracts the contact can be indirect. Some binding calls cover weakened binding; strength is not graded here. Tags and fused reporters may be left off the sequences shown.

The chains behind the UniProt entries cited, without tags or fusion partners. Where a name states a change or a piece, a line headed by the entry shows the natural chain unless it says otherwise. Residues count along the entry.
UniProt O43765, 87-313: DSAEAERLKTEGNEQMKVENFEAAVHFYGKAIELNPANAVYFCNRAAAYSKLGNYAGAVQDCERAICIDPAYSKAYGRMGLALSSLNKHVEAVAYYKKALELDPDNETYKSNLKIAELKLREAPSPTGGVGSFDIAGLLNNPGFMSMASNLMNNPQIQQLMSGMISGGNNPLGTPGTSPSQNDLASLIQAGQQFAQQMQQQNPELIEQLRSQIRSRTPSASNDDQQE
UniProt O43765, 213-313: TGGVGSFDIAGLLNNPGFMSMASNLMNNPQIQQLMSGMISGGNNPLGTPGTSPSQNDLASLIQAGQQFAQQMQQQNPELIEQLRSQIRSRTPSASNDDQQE
UniProt O43765, 219-300: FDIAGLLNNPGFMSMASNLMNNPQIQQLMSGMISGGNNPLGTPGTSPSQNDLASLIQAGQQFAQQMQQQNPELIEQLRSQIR
UniProt O43765, 228-300, stated change not applied: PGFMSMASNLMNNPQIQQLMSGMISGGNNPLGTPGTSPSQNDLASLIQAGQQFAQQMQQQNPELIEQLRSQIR

Assays:
Experiment in all cases: pull-down
[1] = biological target: hSgt2-C (hSgt2 213-313) (Homo sapiens) (UniProt O43765)
[2] = biological target: hSgt2-C_(cons) (hSgt2 219-300) (Homo sapiens) (UniProt O43765)
[3] = biological target: hSgt2-TPR-C (hSgt2 87-313) (Homo sapiens) (UniProt O43765)
[4] = biological target: hSgt2-ΔH0 (hSgt2 228-300) (Homo sapiens) (UniProt O43765)
[5] = biological target: T1, ySgt2-C (ySgt2 222-346) (Saccharomyces cerevisiae) (UniProt Q12118)
T1 sequence: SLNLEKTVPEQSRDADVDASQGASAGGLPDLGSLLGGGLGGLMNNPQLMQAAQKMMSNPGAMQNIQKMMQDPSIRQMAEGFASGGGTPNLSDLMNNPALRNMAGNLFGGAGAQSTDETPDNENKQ

[6] = biological target: T2, ySgt2-C_(cons) (ySgt2 260-327) (Saccharomyces cerevisiae) (UniProt Q12118)
T2 sequence: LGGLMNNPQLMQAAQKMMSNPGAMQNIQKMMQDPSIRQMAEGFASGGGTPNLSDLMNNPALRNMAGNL

[7] = biological target: T3, ySgt2-TPR-C (ySgt2 95-346) (Saccharomyces cerevisiae) (UniProt Q12118)
T3 sequence: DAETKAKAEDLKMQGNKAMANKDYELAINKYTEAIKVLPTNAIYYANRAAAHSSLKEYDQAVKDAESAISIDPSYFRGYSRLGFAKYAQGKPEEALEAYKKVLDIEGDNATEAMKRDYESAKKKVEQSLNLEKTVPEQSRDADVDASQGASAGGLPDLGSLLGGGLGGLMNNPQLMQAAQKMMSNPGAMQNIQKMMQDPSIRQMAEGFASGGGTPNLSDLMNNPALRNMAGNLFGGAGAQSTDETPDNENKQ

[8] = biological target: T4, ySgt2-ΔH0 (ySgt2 266-327) (Saccharomyces cerevisiae) (UniProt Q12118)
T4 sequence: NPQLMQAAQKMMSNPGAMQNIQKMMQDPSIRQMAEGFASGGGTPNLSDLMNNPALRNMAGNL

- binding [1]: binds
- binding [2]: binds
- binding [3]: binds
- binding [4]: binds
- binding [5]: binds
- binding [6]: binds
- binding [7]: binds
- binding [8]: binds weakly
B1: MBP-Sbh1 full length (protein, UniProt P52870 1-82)
chain: MSSPTPPGGQRTLQKRKQGSSQKVAASAPKKNTNSNNSILKIYSDEATGLRVDPLVVLFLAVGFIFSVVALHVISKVAGKLF
